# Reference: the supplement of paper PMC8728848
# The other results are listed elsewhere or left out.
# B1: Gs78B-bfa-542-29-542 (Bacteroides fragilis) (protein)
# chain: SEDINRNPLLPTKEDEKMDGVIYGAYLPNLEKSVIPIGTASESTEPVNRYQIGVNLAGDAWAGYMSPRDNKFNGSKNFTNYFMYENWVNYVYSFMVTDVYSPWMQIKRISQDEGTRNDEIYALAQIIKIAALHRTTDMFGPIPYSQVGKGSFKVAYDSQESVYRSFLKELEEAVQTLDDYSNKSKEVLPAFDIVYNGDVNKWMRFANSLMLRLAIRVRFADAGLAKEYAEKAVKHPAGLINSKELAAQMGKGAGLQMKNPLKVINEEYNDTRMGATIYSYLAGYNDARAAVYFVKNNGFKAVRCGIAKSGDAYNGFTRPNVHEDDPLYWMKASEVCFLKAEGALAGFDMGGSAGDFYNAGIRMSFSENGLDNSSAETYLKDSTRKPANYTDTSNGELSANAPSSITIRWENGATEEEKLERIITQKYLAIFPNGQEAWTEWRRTGYPRQIVVAENKTNSAVLIGNGYDLGGVRRLPYPRTEYEQNGENLHNAISQYLGGVDNAATKVWWDKKSK
# Legend:
# Assay in all cases: glycan array binding signal (z-score within array); higher = stronger binding
# Conditions in all cases: glycan notation: IUPAC condensed, linker removed
# [1] = target: Neu5Ac(a2-6)GlcNAc(b1-4)GlcNAc(b1-4)GlcNAc
# Procedure, shortened: (§1)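 Arrays were curated from the Consortium for Functional Glycomics database, 3228 in total, and kept only where the protein sequence was available. Binding is expressed as a within-array Z-score. This score was averaged across arrays of the same protein sequence at different concentrations or buffers and across linkers, and negative values can be read as non-binding.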
# Neu5Ac(a2-8)Neu5Ac = target: Neu5Ac(a2-8)Neu5Ac
# Procedure, shortened: as §1
# [2] = target: Neu5Ac(a2-8)Neu5Ac(a2-3)Gal(b1-3)GalNAc(b1-4)[Neu5Ac(a2-3)]Gal(b1-4)Glc
# Procedure, shortened: as §1
# [3] = target: Neu5Ac(a2-8)Neu5Ac(a2-3)Gal(b1-3)GalNAc(b1-4)[Neu5Ac(a2-8)Neu5Ac(a2-3)]Gal(b1-4)Glc
# Procedure, shortened: as §1
# [4] = target: Neu5Ac(a2-8)Neu5Ac(a2-3)Gal(b1-4)Glc
# Procedure, shortened: as §1
# [5] = target: Neu5Ac(a2-8)Neu5Ac(a2-3)Gal(b1-4)GlcNAc
# Procedure, shortened: as §1
# [6] = target: Neu5Ac(a2-8)Neu5Ac(a2-3)[Gal(b1-3)GalNAc(b1-4)]Gal(b1-4)Glc
# Procedure, shortened: as §1
# [7] = target: Neu5Ac(a2-8)Neu5Ac(a2-3)[GalNAc(b1-4)]Gal(b1-4)Glc
# Procedure, shortened: as §1
# [8] = target: Neu5Ac(a2-8)Neu5Ac(a2-8)Neu5Ac
# Procedure, shortened: as §1
# [9] = target: Neu5Ac(a2-8)Neu5Ac(a2-8)Neu5Ac(a2-3)Gal(b1-4)Glc
# Procedure, shortened: as §1
# [10] = target: Neu5Ac(a2-8)Neu5Ac(a2-8)Neu5Ac(a2-3)[Gal(b1-3)GalNAc(b1-4)]Gal(b1-4)Glc
# Procedure, shortened: as §1
# [11] = target: Neu5Ac(a2-8)Neu5Ac(a2-8)Neu5Ac(a2-3)[GalNAc(b1-4)]Gal(b1-4)Glc
# Procedure, shortened: as §1
# [12] = target: Neu5Ac(a2-8)Neu5Ac(a2-8)Neu5Ac(a2-8)Neu5Ac(a2-3)[GalNAc(b1-4)]Gal(b1-4)Glc
# Procedure, shortened: as §1
# [13] = target: Neu5Ac(a2-8)Neu5Gc(a2-3)Gal(b1-4)GlcNAc
# Procedure, shortened: as §1
# [14] = target: Neu5Ac(b2-6)Gal(b1-4)GlcNAc
# Procedure, shortened: as §1
# Neu5Ac(b2-6)GalNAc = target: Neu5Ac(b2-6)GalNAc
# Procedure, shortened: as §1
# [15] = target: Neu5Ac9Ac(a2-3)Gal(b1-3)GlcNAc
# Procedure, shortened: as §1
# [16] = target: Neu5Ac9Ac(a2-3)Gal(b1-4)GlcNAc
# Procedure, shortened: as §1
# [17] = target: Neu5Ac9Ac(a2-6)Gal(b1-4)GlcNAc
# Procedure, shortened: as §1
# [18] = target: Neu5Gc(a2-3)Gal(b1-3)GlcNAc
# Procedure, shortened: as §1
# [19] = target: Neu5Gc(a2-3)Gal(b1-3)[Fuc(a1-4)]GlcNAc
# Procedure, shortened: as §1
# Neu5Gc(a2-3)Gal(b1-4)Glc = target: Neu5Gc(a2-3)Gal(b1-4)Glc
# Procedure, shortened: as §1
# [20] = target: Neu5Gc(a2-3)Gal(b1-4)GlcNAc
# Procedure, shortened: as §1
# [21] = target: Neu5Gc(a2-3)Gal(b1-4)GlcNAc(b1-3)Gal(b1-4)GlcNAc(b1-2)Man(a1-3)[Neu5Gc(a2-3)Gal(b1-4)GlcNAc(b1-3)Gal(b1-4)GlcNAc(b1-2)Man(a1-6)]Man(b1-4)GlcNAc(b1-4)GlcNAc
# Procedure, shortened: as §1
# [22] = target: Neu5Gc(a2-3)Gal(b1-4)[Fuc(a1-3)]GlcNAc
# Procedure, shortened: as §1
# [23] = target: Neu5Gc(a2-6)Gal(b1-4)GlcNAc
# Procedure, shortened: as §1
# Neu5Gc(a2-6)GalNAc = target: Neu5Gc(a2-6)GalNAc
# Procedure, shortened: as §1
# [24] = target: Neu5Gc(a2-8)Neu5Ac(a2-3)Gal(b1-4)GlcNAc
# Procedure, shortened: as §1
# [25] = target: Neu5Gc(a2-8)Neu5Gc(a2-3)Gal(b1-4)GlcNAc
# Procedure, shortened: as §1
# [26] = target: Neu5Gc(a2-8)Neu5Gc(a2-3)Gal(b1-4)GlcNAc(b1-3)Gal(b1-4)GlcNAc
# Procedure, shortened: as §1
# [27] = target: Neu5Gc(a2-8)Neu5Gc(a2-6)Gal(b1-4)GlcNAc
# Procedure, shortened: as §1
# [28] = target: Neu5Gc(b2-6)Gal(b1-4)GlcNAc
# Procedure, shortened: as §1
binder,measurement,setting,value
B1,glycan array binding signal (z-score),[1],-0.817
same,glycan array binding signal (z-score),Neu5Ac(a2-8)Neu5Ac,-0.763
same,glycan array binding signal (z-score),[2],-0.763
same,glycan array binding signal (z-score),[3],0.648
same,glycan array binding signal (z-score),[4],-0.855
same,glycan array binding signal (z-score),[5],-0.713
same,glycan array binding signal (z-score),[6],-0.064
same,glycan array binding signal (z-score),[7],-0.28
same,glycan array binding signal (z-score),[8],-0.755
same,glycan array binding signal (z-score),[9],-0.617
same,glycan array binding signal (z-score),[10],-0.843
same,glycan array binding signal (z-score),[11],-0.443
same,glycan array binding signal (z-score),[12],1.92
same,glycan array binding signal (z-score),[13],-0.853
same,glycan array binding signal (z-score),[14],-0.689
same,glycan array binding signal (z-score),Neu5Ac(b2-6)GalNAc,-0.685
same,glycan array binding signal (z-score),[15],-0.668
same,glycan array binding signal (z-score),[16],-0.798
same,glycan array binding signal (z-score),[17],-0.811
same,glycan array binding signal (z-score),[18],-0.849
same,glycan array binding signal (z-score),[19],-0.452
same,glycan array binding signal (z-score),Neu5Gc(a2-3)Gal(b1-4)Glc,-0.797
same,glycan array binding signal (z-score),[20],-0.836
same,glycan array binding signal (z-score),[21],-0.45
same,glycan array binding signal (z-score),[22],0.283
same,glycan array binding signal (z-score),[23],-0.619
same,glycan array binding signal (z-score),Neu5Gc(a2-6)GalNAc,0.266
same,glycan array binding signal (z-score),[24],-0.824
same,glycan array binding signal (z-score),[25],-0.835
same,glycan array binding signal (z-score),[26],-0.842
same,glycan array binding signal (z-score),[27],-0.438
same,glycan array binding signal (z-score),[28],0.491

# Copied from the results shown (2 entries):
binder,measurement,setting,value
B1,glycan array binding signal (z-score),[27],-0.438
same,glycan array binding signal (z-score),[28],0.491
